A short description of series [1]: Ciprofloxacin levels in middle ear fluid and plasma after gel treatment. The format is in vivo, chinchilla.
For series [2] the following is noted: chinchilla, not told, 48 h.

Bounds are passed on as bounds.

With `O=C(O)c1cn(C2CC2)c2cc(N3CCNCC3)c(F)cc2c1=O` [ciprofloxacin], the concentration at 48 h in series [1] (male, chinchilla, in vivo) is below 500 ng/mL. For the same molecule, the plasma ciprofloxacin result in series [1] (superior sagital sinus, 2 and 5 days post-treatment, detection limit approximately 100 ng/mL) is listed as “no detectable ciprofloxacin”. The “Trans-TM ciprofloxacin flux versus target MIC” value in series [2] is “failed to reach MIC-levels within 48 hours”.

These data come from patent US8822410B2, “Tympanic membrane permeating ear drops and uses thereof” (Children's Medical Center Corporation, priority 2008, dated 2014).
